Results deposited as PubChem BioAssay AID1259308 (NCATS, 2017).
In all, the deposit lists about 59,000 reagents; this is a random part of them. Over the whole deposit, about 1,510 (2.6%) are marked active. 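Calls use total luciferase alone and ignore viability, so some active siRNAs may act by altering cell number.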 The numbers tell different reagents against one gene apart. Further read-outs or replicates are left out here.

Assay: 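Genes whose loss raises luciferase production in HEK293 cells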 (primary screen)
Cells: human HEK293 embryonic kidney cells stably expressing firefly luciferase (HEK-CMV-Luc2-Hygro)
Reagents: single siRNA against human genes, 0.8 pmol siRNA per well
Duration: 72 h
Measured: 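Reporter luminescence and viable-cell signal on separate replicate plates, given as percent of non-targeting control and median/MAD z-scores, plus per-cell luciferase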
Scale: total luciferase, z-score: higher = more reporter protein produced
Hit rule: 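An siRNA counts as active if its total luciferase robust z-score exceeds 3; genes with two or more such siRNAs out of three were retested with fresh siRNAs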
Meaning of the calls: active = raised luciferase; inactive = no rise

For AMHR2 #1, the entry reads total luciferase, z-score 0.583; inactive.
After knock-down of AMHR2 #2, the record shows total luciferase, z-score 0.345; inactive.
AMHR2 #3 showed total luciferase, z-score -1.08; inactive.
For SBK1 #1, the entry reads total luciferase, z-score -0.277; inactive.
SBK1 #2 scored total luciferase, z-score 1.36; inactive.
For SBK1 #3 the deposit lists total luciferase, z-score 1.55; inactive.
After knock-down of RPRM #1, the record shows total luciferase, z-score -1.84; inactive.
After knock-down of RPRM #2, the screen gave total luciferase, z-score 1.67; inactive.
RPRM #3 scored total luciferase, z-score -1.25; inactive.
Knock-down of PNLDC1 #1 resulted in: total luciferase, z-score 1.06; inactive.
Silencing of PNLDC1 #2 resulted in: total luciferase, z-score -0.00467; inactive.
With knock-down of PNLDC1 #3, the record shows total luciferase, z-score -1.04; inactive.

2 of these entries, set out differently.
| Gene | siRNA no. | total luciferase, z-score | activity call |
| --- | --- | --- | --- |
| AMHR2 | 1 | 0.583 | inactive |
| AMHR2 | 2 | 0.345 | inactive |
